Consider 1 molecule from article PMC4792234, “Modulation of MICAL Monooxygenase Activity by its Calponin Homology Domain: Structural and Mechanistic Insights” (Scientific Reports, 2016).

Results are given in words; binding and its absence hold for the method and conditions named.

In this test the target is T1, MICAL_(MO-CH), fragment of mouse MICAL-1 containing the MO and CH domains (residues 2 to 615) (Mus musculus) (UniProt Q8VDP3).
T1 sequence: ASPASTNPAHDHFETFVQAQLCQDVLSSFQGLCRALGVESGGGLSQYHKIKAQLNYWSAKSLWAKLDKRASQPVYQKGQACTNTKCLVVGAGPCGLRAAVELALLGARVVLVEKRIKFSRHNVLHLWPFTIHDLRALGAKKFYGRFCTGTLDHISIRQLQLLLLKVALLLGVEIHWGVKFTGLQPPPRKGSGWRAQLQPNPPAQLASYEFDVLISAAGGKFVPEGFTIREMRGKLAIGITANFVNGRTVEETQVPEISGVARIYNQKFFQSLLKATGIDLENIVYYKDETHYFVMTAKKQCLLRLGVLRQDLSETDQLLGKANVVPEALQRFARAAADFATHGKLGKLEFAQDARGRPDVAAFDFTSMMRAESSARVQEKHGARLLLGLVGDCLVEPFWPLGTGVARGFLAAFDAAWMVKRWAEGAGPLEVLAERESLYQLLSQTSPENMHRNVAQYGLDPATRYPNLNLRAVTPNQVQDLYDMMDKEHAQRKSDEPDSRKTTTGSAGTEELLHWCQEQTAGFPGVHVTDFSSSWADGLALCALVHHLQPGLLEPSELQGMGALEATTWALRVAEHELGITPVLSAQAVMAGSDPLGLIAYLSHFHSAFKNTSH
Put plainly: condition: 19 mM peptide solution, mixed 1:1 with the protein solution; crystal structure; co-crystallisation (native 1): 1 ul MICAL_(MO-CH) at 25 mg/ml mixed with 1 ul of 19.0 mM D-loop peptide, 30 min at room temperature; reservoir 100 mM HEPES pH 7.0, 20% PEG 2000 MME; 2.31 A; both purified.

As for RHQGVMVGMGQKDS [synthetic actin D-loop peptide (residues 39 to 52 of actin)], the binding entry is recorded as “no binding”.
